Our source for the binding values is paper PMC6107761.

Chains of the proteins cited; added tags and fusions are not shown. Lines headed by an entry give the natural chain unless they say otherwise; changes in a name come on top. A line that says so, or that is headed by a name, gives the form on record, which may keep a tag or linker.
human E64D CIB2 (O75838-1, form named): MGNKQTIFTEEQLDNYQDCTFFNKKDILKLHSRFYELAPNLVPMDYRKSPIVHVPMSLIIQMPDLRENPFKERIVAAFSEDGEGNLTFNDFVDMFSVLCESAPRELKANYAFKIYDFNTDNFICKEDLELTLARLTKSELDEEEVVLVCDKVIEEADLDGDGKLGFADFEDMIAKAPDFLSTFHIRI

Assay [1] concerns the target T1, peptide of the membrane proximal segment of the cytoplasmic domain of α7B integrin, residues 1101-1116.
T1 sequence (peptide, N-terminal acetyl (Ac-); C-terminal amide (-NH2)): LLLWKMGFFKRAKHPE
The assay is described as follows: other fluorescence titration; results not shown: Trp emission spectra of the peptides with E64D CIB2, as for the WT; both purified.

The target in assay [2] is T2, scrambled peptide obtained by shuffling the α7B_M sequence.
T2 sequence (peptide, N-terminal acetyl (Ac-); C-terminal amide (-NH2)): KEFWGLHAKPRLKLMF
In words: other fluorescence titration; Trp emission spectra of 4 μM peptide alone and with fixed concentrations of WT CIB2 (8 μM for α7B_M; 2, 4 and 8 μM for Scrb); 20 mM Hepes, 150 mM KCl, 1 mM DTT pH 7.5, 37°C, 1 mM Mg2+ and 1 mM Ca2+; both purified.

No constants are given. Whether binding was seen depends on the method and setting. Some results given as binding are weak or reduced against the parent protein; the word gives no strength.

For the substance “human E64D CIB2 (from UniProt O75838-1 1-187)”, the binding result in assay [1] is “binds”.
In the case of “human wild type calcium and integrin binding protein 2 (CIB2) (from UniProt O75838-1 1-187)”, the binding entry in assay [2] is “no binding (tested: 8 μM)”.
